Over roughly 33,000 sequences, “E-score (-0.5 to 0.5)” has its median near -0.016; the highest 2% begin near 0.3. The list shows a part of the results.
molecular target: T1, Yer184c (UniProt P39961); assay: PBM E-score (8-mer binding enrichment) (E-score (-0.5 to 0.5)); higher = stronger / more preferred TF binding; settings: protein concentration: 100 nM; construct: GST-full length
T1 sequence: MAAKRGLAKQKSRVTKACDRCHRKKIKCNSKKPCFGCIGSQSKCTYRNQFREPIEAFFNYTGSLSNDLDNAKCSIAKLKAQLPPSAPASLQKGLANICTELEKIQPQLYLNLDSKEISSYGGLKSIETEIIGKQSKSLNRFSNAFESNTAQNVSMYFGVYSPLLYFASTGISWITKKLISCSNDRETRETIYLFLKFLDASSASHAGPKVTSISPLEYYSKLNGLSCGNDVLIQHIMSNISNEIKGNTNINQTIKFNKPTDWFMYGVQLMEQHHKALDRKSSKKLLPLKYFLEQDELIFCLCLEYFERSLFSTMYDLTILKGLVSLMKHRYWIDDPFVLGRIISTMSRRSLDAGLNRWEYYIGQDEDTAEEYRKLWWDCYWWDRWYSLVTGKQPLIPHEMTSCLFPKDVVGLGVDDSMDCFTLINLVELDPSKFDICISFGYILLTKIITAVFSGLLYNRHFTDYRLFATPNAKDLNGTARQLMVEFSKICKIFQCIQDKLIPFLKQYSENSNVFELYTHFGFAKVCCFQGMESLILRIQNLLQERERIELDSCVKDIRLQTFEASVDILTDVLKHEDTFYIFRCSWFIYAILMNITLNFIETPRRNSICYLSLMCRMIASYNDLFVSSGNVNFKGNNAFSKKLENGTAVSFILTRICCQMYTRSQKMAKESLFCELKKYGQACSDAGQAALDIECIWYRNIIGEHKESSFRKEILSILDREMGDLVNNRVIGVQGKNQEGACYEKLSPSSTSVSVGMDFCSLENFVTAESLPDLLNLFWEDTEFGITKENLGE
Procedure, shortened: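 Detection of bound protein used fluorescent anti-GST, with scans normalised by masliner. The proteins were GST-tagged yeast transcription factors applied at about 100-200 nM to universal all-10-mer Agilent arrays made double-stranded by primer extension. Each ungapped eight-base word, pooled with its reverse complement, was scored with an E-score from the Universal PBM Analysis Suite.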

| Sequence | PBM E-score |
| --- | --- |
| AAACGGTA | 0.163 |
| CACTCCCG | 0.0838 |
| CGGACAAG | 0.234 |
| CTAAGAAG | 0.158 |
| CAAACCCA | 0.0411 |
| GAGCGACC | 0.0181 |
| GAATAGTA | 0.187 |
| CGTATCCA | -0.0949 |
| AGTAAATC | -0.0252 |
| AACACGCC | -0.167 |
| GGATAAGA | 0.0512 |
| GAAATGTC | 0.0129 |
| AAGATTGA | -0.0568 |
| TATCTGCA | -0.0584 |
| ACCTCCCG | -0.14 |
| AATCCGGT | 0.36 |
| CAGGGGAC | -0.253 |
| CGATGGCG | -0.0401 |
| TACAAGGA | 0.0489 |
| GGCTCCTA | -0.11 |
| AAATTCTT | 0.0207 |
| CTTCACCC | 0.158 |
| CACTGGGC | -0.185 |
| GCTAATCC | 0.0566 |
| CTGTAAGC | -0.0673 |

| Sequence | PBM E-score |
| --- | --- |
| CAAGATCG | 0.146 |
| CTGTGGAA | 0.111 |
| GGTGCATA | -0.0408 |
| GCGGACCA | 0.243 |
| TTGAGAAA | 0.0843 |
| ATGTAATA | 0.251 |
| CTTGAACA | 0.0822 |
| CAAGAGCC | 0.108 |
| AAGCCGGA | 0.411 |
| AACGTCGC | 0.00887 |
| ATTGGCAG | -0.137 |
| CAGCAAAG | 0.0136 |
| TATCTTGA | 0.0213 |
| ACGCTGCC | -0.12 |
| AAACAATA | 0.282 |
| GTCTCGAA | -0.169 |
| AGTCTCTC | -0.198 |
| GAAACCAC | -0.0782 |
| GTTACGAA | 0.209 |
| ACGTGCAA | -0.0364 |
| CAGCCCGC | -0.246 |
| GACTAGAC | -0.115 |
| CAAACACG | 0.051 |
| GCCGTTCC | 0.0294 |
| TGCGCTAA | 0.0232 |

| Sequence | PBM E-score |
| --- | --- |
| CAGTGGTC | -0.0866 |
| CCGGTGCG | 0.14 |
| GGTCCTGA | 0.0295 |
| GGTAACAC | -0.00923 |
| CCTGGTAG | -0.314 |
| CAGTCACG | -0.154 |
| CCTTATAC | -0.00095 |
| CACACGCA | -0.172 |
| CACACCGG | 0.0348 |
| CCTAAGCC | -0.148 |
| CCCGAACC | 0.0911 |
| CAAACCAG | -0.0823 |
| ACTCCACT | -0.16 |
| CTGCCAGA | -0.0616 |
| ACAGCTTG | -0.0221 |
| TAATGCGA | -0.019 |
| CTTTCACC | -0.0811 |
| CGCAGCTA | 0.0423 |
| ATATACCG | 0.235 |
| AGTACACC | -0.133 |
| AAATATTT | 0.207 |
| CTGCTGGC | -0.188 |
| ACCGTCCG | 0.151 |
| GACACTCA | -0.0521 |
| AATTTTCA | 0.172 |

| Sequence | PBM E-score |
| --- | --- |
| CCACTCTA | -0.152 |
| AATGAGTG | 0.0619 |
| ATGCGGTC | 0.182 |
| CTGATCGC | -0.0268 |
| AAGAATCC | 0.157 |
| CCATGCGA | -0.0128 |
| CCCGCCCC | 0.102 |
| ATCACTAA | 0.117 |
| AAGGATGC | -0.111 |
| CCTGCTAG | -0.216 |
| AGGCATTC | -0.156 |
| ACATCTCG | 0.00537 |
| GCTGACTA | -0.161 |
| GACGCAAA | 0.0185 |
| TAGCTTAA | 0.0932 |
| ACTATGCA | -0.111 |
| GAAGCGCC | 0.192 |
| TAATATAA | 0.339 |
| ACGCCCAC | -0.121 |
| GGACTACC | -0.123 |
| AAGATGTG | 0.00026 |
| GGTTGTGA | 0.084 |
| TTAGACAA | 0.0737 |
| GGCGTCTA | -0.00727 |
| AAGAAAAA | 0.276 |

| Sequence | PBM E-score |
| --- | --- |
| ATGACCTG | -0.0827 |
| GCGCTGAA | -0.0402 |
| ACGCACCG | -0.0652 |
| CGTTGCGA | -0.118 |
| CCTCAATA | -0.202 |
| CTACTGAG | -0.0172 |
| TCCAAAGA | 0.116 |
| ATTACTGA | -0.093 |
| GAGTACCA | 0.052 |
| TATCGTGA | -0.0301 |
| AAACACCT | 0.105 |
| AGGTGTAC | -0.13 |
| AGTTCCAT | -0.0279 |
| GCCATAAA | -0.0191 |
| AATCCAAT | 0.012 |
| GGTAAACC | 0.0229 |
| ACCTTACT | 0.0926 |
| TAAGGCGA | -0.0439 |
| GATGGATA | 0.0331 |
| AATGCGAA | 0.00751 |
| AACAGAGT | 0.0963 |
| GTACGTAA | -0.116 |
| CCCAAGAA | -0.00755 |
| GTTATAAC | 0.0565 |
| ATAACTCG | 0.177 |

| Sequence | PBM E-score |
| --- | --- |
| AGCGCGCA | 0.16 |
| AATCCCTC | -0.0459 |
| CGAGCTTC | 0.197 |
| CATTTGCA | 0.0176 |
| AAGTTGAA | 0.0794 |
| CCATACTC | -0.196 |
| AGAACCTA | -0.0786 |
| ATGTCTCG | -0.135 |
| AGTTCAAG | 0.213 |
| ACCATCTA | -0.209 |
| GCCTATGA | -0.0701 |
| GTCACGCA | -0.211 |
| ACCACCGG | 0.19 |
| CACCACTC | 0.087 |
| CAGCAAGC | -0.339 |
| ACTCACTC | 0.0279 |
| AGCGGCAA | 0.067 |
| AATTGAAC | -0.047 |
| GAGCCCCA | -0.266 |
| CCATACAG | -0.247 |
| ACCCCTGG | -0.271 |
| ACTATAGA | 0.0663 |
| GGTCACGA | -0.167 |
| CGGCAGAA | 0.181 |
| TGGAACCA | 0.138 |

| Sequence | PBM E-score |
| --- | --- |
| CAAGGTGA | -0.164 |
| ATAACCGA | 0.0743 |
| GCAGTGCC | -0.0882 |
| ATATGTCA | 0.137 |
| AGATTCCT | -0.215 |
| GCCTATAC | -0.197 |
| CAAGTAAG | -0.0398 |
| AAACGATT | 0.0499 |
| CAGCGAGG | -0.218 |
| GCATCTGA | -0.246 |
| CCATTTGC | -0.0263 |
| ACGAACCA | 0.175 |
| GAGTGAGA | -0.00227 |
| ATAGCCAT | -0.0685 |
| AGTTGGGA | -0.158 |
| CTACCAGA | -0.027 |
| ACGACACA | 0.0328 |
| ATAGCTCG | 0.0146 |
| CTGATGAA | -0.113 |
| AACCTGTC | -0.172 |
| CGCGTTCC | 0.11 |
| ATTCGACC | -0.122 |

In a second layout: results already given
Sequence	PBM E-score
AAGCCGGA	0.411
CAGTCACG	-0.154
CCTTATAC	-0.00095
CCCGAACC	0.0911
GAGCCCCA	-0.266
AACCTGTC	-0.172

Part of the list above, as labelled records:
ATAGCCAT
  PBM E-score: -0.0685
AGTTGGGA
  PBM E-score: -0.158

— the supplement of paper PMC3334620
